# Results reported in the supplement of paper PMC8728848.
# The list shows a part of the results.
# B1: LlpA (Burkholderia cenocepacia) (protein)
# chain: MGSSHHHHHHSSGLVPRGSHKILGSNETLSAGNVVYSDNGQYHLAMQTDGNLVVYGPTGAVWQSQTSGSGGNRAVMQGDGNLVIYRADNTAAWSSKTAHPGAFLAVQDDGNVVIYWPRPAWASNTSDPATQQSAESKYLASGSTMSAGQTVTVAQYMLVFQADGNLVLYKNGGNPIWSTGTQGKGATYAVMQSDGNFVIYAGSTALWSTKTNGANGAQLVLQSDGNLVIYAPTAAWSTKFGLVTAPTSTSTSNNGPGSGICVGVCPPHPLNGNPFSPVGVGTTGLGFPTPGYPGAAF
# How the values were obtained:
# Assay in all cases: glycan array binding signal (z-score within array); higher = stronger binding
# Settings in all cases: glycan notation: IUPAC condensed, linker removed
# [1] = target: Neu5Ac(a2-6)Gal(b1-4)GlcNAc(b1-3)Gal(b1-4)GlcNAc(b1-3)Gal(b1-4)GlcNAc
# Procedure, shortened: (§1)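 Glycan array binding is given as a within-array Z-score, which can be read as non-binding when negative. The arrays, 3228 of them, came from the Consortium for Functional Glycomics database and were retained only where the protein sequence was available. Z-scores were averaged across arrays of the same protein sequence at different concentrations or buffers and across linkers.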
# [2] = target: Neu5Ac(a2-6)Gal(b1-4)GlcNAc(b1-3)Gal(b1-4)GlcNAc(b1-3)Gal(b1-4)GlcNAc(b1-2)Man(a1-3)[Neu5Ac(a2-6)Gal(b1-4)GlcNAc(b1-3)Gal(b1-4)GlcNAc(b1-3)Gal(b1-4)GlcNAc(b1-2)Man(a1-6)]GalNAc
# Procedure, shortened: as §1
# [3] = target: Neu5Ac(a2-6)Gal(b1-4)GlcNAc(b1-3)Gal(b1-4)GlcNAc(b1-3)GalNAc
# Procedure, shortened: as §1
# [4] = target: Neu5Ac(a2-6)Gal(b1-4)GlcNAc(b1-3)Gal(b1-4)GlcNAc(b1-3)[Neu5Ac(a2-6)Gal(b1-4)GlcNAc(b1-3)Gal(b1-4)GlcNAc(b1-6)]GalNAc
# Procedure, shortened: as §1
# [5] = target: Neu5Ac(a2-6)Gal(b1-4)GlcNAc(b1-3)Gal(b1-4)GlcNAc(b1-6)[Gal(b1-3)]GalNAc
# Procedure, shortened: as §1
# [6] = target: Neu5Ac(a2-6)Gal(b1-4)GlcNAc(b1-3)Gal(b1-4)[Fuc(a1-3)]GlcNAc(b1-3)Gal(b1-4)[Fuc(a1-3)]GlcNAc
# Procedure, shortened: as §1
# [7] = target: Neu5Ac(a2-6)Gal(b1-4)GlcNAc(b1-3)GalNAc
# Procedure, shortened: as §1
# [8] = target: Neu5Ac(a2-6)Gal(b1-4)GlcNAc(b1-3)[Neu5Ac(a2-6)Gal(b1-4)GlcNAc(b1-6)]GalNAc
# Procedure, shortened: as §1
# [9] = target: Neu5Ac(a2-6)Gal(b1-4)GlcNAc(b1-6)GalNAc
# Procedure, shortened: as §1
# [10] = target: Neu5Ac(a2-6)Gal(b1-4)GlcNAc(b1-6)[Gal(b1-3)GlcNAc(b1-3)]Gal(b1-4)Glc
# Procedure, shortened: as §1
# [11] = target: Neu5Ac(a2-6)Gal(b1-4)GlcNAc(b1-6)[Gal(b1-3)]GalNAc
# Procedure, shortened: as §1
# [12] = target: Neu5Ac(a2-6)Gal(b1-4)GlcNAc6S
# Procedure, shortened: as §1
# Neu5Ac(a2-6)GalNAc = target: Neu5Ac(a2-6)GalNAc
# Procedure, shortened: as §1
# [13] = target: Neu5Ac(a2-6)GalNAc(b1-4)GlcNAc
# Procedure, shortened: as §1
# [14] = target: Neu5Ac(a2-6)GalNAc(b1-4)GlcNAc6S
# Procedure, shortened: as §1
# [15] = target: Neu5Ac(a2-6)GlcNAc(b1-4)GlcNAc
# Procedure, shortened: as §1
# [16] = target: Neu5Ac(a2-6)GlcNAc(b1-4)GlcNAc(b1-4)GlcNAc
# Procedure, shortened: as §1
# Neu5Ac(a2-8)Neu5Ac = target: Neu5Ac(a2-8)Neu5Ac
# Procedure, shortened: as §1
# [17] = target: Neu5Ac(a2-8)Neu5Ac(a2-3)Gal(b1-3)GalNAc(b1-4)[Neu5Ac(a2-3)]Gal(b1-4)Glc
# Procedure, shortened: as §1
# [18] = target: Neu5Ac(a2-8)Neu5Ac(a2-3)Gal(b1-3)GalNAc(b1-4)[Neu5Ac(a2-8)Neu5Ac(a2-3)]Gal(b1-4)Glc
# Procedure, shortened: as §1
# [19] = target: Neu5Ac(a2-8)Neu5Ac(a2-3)Gal(b1-4)Glc
# Procedure, shortened: as §1
# [20] = target: Neu5Ac(a2-8)Neu5Ac(a2-3)Gal(b1-4)GlcNAc
# Procedure, shortened: as §1
# [21] = target: Neu5Ac(a2-8)Neu5Ac(a2-3)[Gal(b1-3)GalNAc(b1-4)]Gal(b1-4)Glc
# Procedure, shortened: as §1
# [22] = target: Neu5Ac(a2-8)Neu5Ac(a2-3)[GalNAc(b1-4)]Gal(b1-4)Glc
# Procedure, shortened: as §1
# [23] = target: Neu5Ac(a2-8)Neu5Ac(a2-8)Neu5Ac
# Procedure, shortened: as §1
# [24] = target: Neu5Ac(a2-8)Neu5Ac(a2-8)Neu5Ac(a2-3)Gal(b1-4)Glc
# Procedure, shortened: as §1
# [25] = target: Neu5Ac(a2-8)Neu5Ac(a2-8)Neu5Ac(a2-3)[Gal(b1-3)GalNAc(b1-4)]Gal(b1-4)Glc
# Procedure, shortened: as §1
# [26] = target: Neu5Ac(a2-8)Neu5Ac(a2-8)Neu5Ac(a2-3)[GalNAc(b1-4)]Gal(b1-4)Glc
# Procedure, shortened: as §1
# [27] = target: Neu5Ac(a2-8)Neu5Ac(a2-8)Neu5Ac(a2-8)Neu5Ac(a2-3)[GalNAc(b1-4)]Gal(b1-4)Glc
# Procedure, shortened: as §1
# [28] = target: Neu5Ac(a2-8)Neu5Gc(a2-3)Gal(b1-4)GlcNAc
# Procedure, shortened: as §1
# [29] = target: Neu5Ac(b2-6)Gal(b1-4)GlcNAc
# Procedure, shortened: as §1
# Neu5Ac(b2-6)GalNAc = target: Neu5Ac(b2-6)GalNAc
# Procedure, shortened: as §1
# [30] = target: Neu5Ac9Ac(a2-3)Gal(b1-3)GlcNAc
# Procedure, shortened: as §1
# [31] = target: Neu5Ac9Ac(a2-3)Gal(b1-4)GlcNAc
# Procedure, shortened: as §1
# [32] = target: Neu5Ac9Ac(a2-6)Gal(b1-4)GlcNAc
# Procedure, shortened: as §1
# [33] = target: Neu5Gc(a2-3)Gal(b1-3)GlcNAc
# Procedure, shortened: as §1
# [34] = target: Neu5Gc(a2-3)Gal(b1-3)[Fuc(a1-4)]GlcNAc
# Procedure, shortened: as §1
# Neu5Gc(a2-3)Gal(b1-4)Glc = target: Neu5Gc(a2-3)Gal(b1-4)Glc
# Procedure, shortened: as §1
# [35] = target: Neu5Gc(a2-3)Gal(b1-4)GlcNAc
# Procedure, shortened: as §1
# [36] = target: Neu5Gc(a2-3)Gal(b1-4)GlcNAc(b1-3)Gal(b1-4)GlcNAc(b1-2)Man(a1-3)[Neu5Gc(a2-3)Gal(b1-4)GlcNAc(b1-3)Gal(b1-4)GlcNAc(b1-2)Man(a1-6)]Man(b1-4)GlcNAc(b1-4)GlcNAc
# Procedure, shortened: as §1
# [37] = target: Neu5Gc(a2-3)Gal(b1-4)[Fuc(a1-3)]GlcNAc
# Procedure, shortened: as §1
# [38] = target: Neu5Gc(a2-6)Gal(b1-4)GlcNAc
# Procedure, shortened: as §1
# Neu5Gc(a2-6)GalNAc = target: Neu5Gc(a2-6)GalNAc
# Procedure, shortened: as §1
# [39] = target: Neu5Gc(a2-8)Neu5Ac(a2-3)Gal(b1-4)GlcNAc
# Procedure, shortened: as §1
# [40] = target: Neu5Gc(a2-8)Neu5Gc(a2-3)Gal(b1-4)GlcNAc
# Procedure, shortened: as §1
binder,measurement,setting,value
B1,glycan array binding signal (z-score),[1],-0.208
same,glycan array binding signal (z-score),[2],1.99
same,glycan array binding signal (z-score),[3],-1.03
same,glycan array binding signal (z-score),[4],0.83
same,glycan array binding signal (z-score),[5],-0.371
same,glycan array binding signal (z-score),[6],0.446
same,glycan array binding signal (z-score),[7],0.067
same,glycan array binding signal (z-score),[8],0.067
same,glycan array binding signal (z-score),[9],0.313
same,glycan array binding signal (z-score),[10],0.132
same,glycan array binding signal (z-score),[11],0.659
same,glycan array binding signal (z-score),[12],-0.965
same,glycan array binding signal (z-score),Neu5Ac(a2-6)GalNAc,-0.942
same,glycan array binding signal (z-score),[13],-1.32
same,glycan array binding signal (z-score),[14],0.676
same,glycan array binding signal (z-score),[15],-0.128
same,glycan array binding signal (z-score),[16],-0.76
same,glycan array binding signal (z-score),Neu5Ac(a2-8)Neu5Ac,0.126
same,glycan array binding signal (z-score),[17],0.988
same,glycan array binding signal (z-score),[18],0.947
same,glycan array binding signal (z-score),[19],-1.11
same,glycan array binding signal (z-score),[20],-0.759
same,glycan array binding signal (z-score),[21],-0.216
same,glycan array binding signal (z-score),[22],-0.208
same,glycan array binding signal (z-score),[23],0.546
same,glycan array binding signal (z-score),[24],0.253
same,glycan array binding signal (z-score),[25],-0.618
same,glycan array binding signal (z-score),[26],0.351
same,glycan array binding signal (z-score),[27],0.029
same,glycan array binding signal (z-score),[28],-1.03
same,glycan array binding signal (z-score),[29],0.391
same,glycan array binding signal (z-score),Neu5Ac(b2-6)GalNAc,-0.883
same,glycan array binding signal (z-score),[30],-0.027
same,glycan array binding signal (z-score),[31],-0.412
same,glycan array binding signal (z-score),[32],0.934
same,glycan array binding signal (z-score),[33],-0.35
same,glycan array binding signal (z-score),[34],0.289
same,glycan array binding signal (z-score),Neu5Gc(a2-3)Gal(b1-4)Glc,0.058
same,glycan array binding signal (z-score),[35],-0.079
same,glycan array binding signal (z-score),[36],-0.02
same,glycan array binding signal (z-score),[37],-0.189
same,glycan array binding signal (z-score),[38],1.6
same,glycan array binding signal (z-score),Neu5Gc(a2-6)GalNAc,0.385
same,glycan array binding signal (z-score),[39],-0.667
same,glycan array binding signal (z-score),[40],-1.13

# In another format: entries from further up
binder | measurement | setting | value
B1 | glycan array binding signal (z-score) | [8] | 0.067
same | glycan array binding signal (z-score) | [9] | 0.313
